# Record: PubChem BioAssay AID504744 (Drosophila RNAi Screening Center, 2011)
# Aim: 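Uncover factors, including feedback loops, that control dAkt activation in fly cells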 (primary screen)
# Cell system: Drosophila Kc167 cells
# Reagent: long dsRNA against Drosophila genes, 250 ng dsRNA per well of a 384-well plate
# Timing: 3 days of knock-down, then overnight serum-free starvation before stimulation
# Challenge: bovine insulin at 387 nM for 10 minutes after 12 h without serum
# Read-out: 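In-cell antibody fluorescence for phospho-dAkt in each well over DNA-dye signal, with log2 residuals expressed as z-scores adjusted for cell count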
# Rule for the call: 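Hit in the insulin screen when the two-replicate mean z-score is more extreme than plus or minus 2.5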
# The screen tested about 23,000 reagents; this is a random part of those with a known target gene and a result. Over the whole deposit, 98 (0.43%) were called active. 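Only hit calls are given; the phospho-dAkt signals, z-scores and hit direction were not deposited.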 The numbers tell different reagents against one gene apart. A plus sign joins genes that one reagent is predicted to hit. Reagent sequences are not shown.
gene,reagent,Outcome
Hydr2 (alpha/beta hydrolase2),1,inactive
ph-p (polyhomeotic proximal),1,inactive
klhl10 (kelch like family member 10),1,inactive
klhl10 (kelch like family member 10),2,inactive
klhl10 (kelch like family member 10),3,inactive
klhl10 (kelch like family member 10),4,inactive
CG3634,1,inactive
nod (no distributive disjunction),1,inactive
nod (no distributive disjunction),2,inactive
cag,1,inactive
pgc (polar granule component),1,inactive
CG14431,1,inactive
RpL38 (Ribosomal protein L38),1,inactive
CG8509,1,inactive
CG6195,1,inactive
CG9150,1,inactive
Start1,1,inactive
CG42254 (retired record),1,inactive
CG6574,1,inactive
CG31141,1,inactive
Mmp1 (Matrix metalloproteinase 1),1,inactive
CG9018,1,inactive
Or67b (Odorant receptor 67b),1,inactive
VhaAC45RP (VhaAC45-related protein),1,inactive
PolZ1 (DNA polymerase zeta subunit 1),1,inactive
CG32445,1,inactive
CG15373,1,inactive
Gug (Grunge),1,inactive
Cyp6a21 (Cytochrome P450 6a21),1,inactive
Setd3 (SET domain containing 3),1,inactive
Setd3 (SET domain containing 3),2,inactive
CG18302,1,inactive
dia (diaphanous),1,inactive
CG30268,1,inactive
antr (antares),1,inactive
Vha26 (Vacuolar H[+]-ATPase 26kD subunit),1,inactive
CG6959,1,inactive
nerfin-1 (nervous fingers 1),1,inactive
Srp68 (Signal recognition particle 68),1,inactive
CG16898,1,inactive
CG33251 (retired record) + CG9915,1,inactive
"Pp1-Y1 (Protein phosphatase 1, Y-linked 1)",1,inactive
nol (no optic lobe),1,inactive
ry (rosy),1,inactive
CG14650,1,inactive
eIF4E3 (eukaryotic translation initiation factor 4E3),1,inactive
Or82a (Odorant receptor 82a),1,inactive
dlp (dally-like),1,inactive
dlp (dally-like),2,inactive
Pmvk (Phosphomevalonate kinase),1,inactive
CG2126,1,inactive
oxt (peptide O-xylosyltransferase),1,inactive
Hil (Hillarin),1,inactive
Hil (Hillarin),2,inactive
bru3 (bruno 3),1,inactive
bru3 (bruno 3),2,inactive
bru3 (bruno 3),3,inactive
bru3 (bruno 3),4,inactive
CG32204,1,inactive
Tsp2A (Tetraspanin 2A),1,inactive
HSPC300 (Haematopoietic stem/progenitor cell protein 300),1,inactive
slbo (slow border cells),1,inactive
alpha-Cat (alpha Catenin),1,inactive
CG15594,1,inactive
CG7179,1,inactive
vtd (verthandi),1,inactive
Osi11 (Osiris 11),1,inactive
CheB38c (Chemosensory protein B 38c),1,inactive
CG7214,1,inactive
CG7214,2,inactive
mRpS18B (mitochondrial ribosomal protein S18B),1,inactive
Nup160 + RfC38,1,inactive
Eip63F-1 (Ecdysone-induced protein 63F 1),1,inactive
Eip63F-1 (Ecdysone-induced protein 63F 1),2,inactive
ND-20 (NADH dehydrogenase (ubiquinone) 20 kDa subunit),1,inactive
pio (piopio),1,inactive
Prp6 (pre-mRNA processing factor 6),1,inactive
Prp6 (pre-mRNA processing factor 6),2,inactive
CG8419,1,inactive
ttv (tout-velu),1,inactive
Rpn3 (Regulatory particle non-ATPase 3),1,inactive
hui (hase und igel),1,inactive
CG8677 + CG31626,1,inactive
CG12910,1,inactive
CG6138,1,inactive

Copied from the list:
ry (rosy), Outcome → inactive
klhl10 (kelch like family member 10) #1, Outcome = inactive
pio (piopio), Outcome → inactive
Result for Nup160 + RfC38 under “Outcome”: inactive
Entry for Rpn3 (Regulatory particle non-ATPase 3) under “Outcome”: inactive
For “Outcome”, CG14650 has inactive

The results go on:
gene,reagent,Outcome
CG7448 (retired record),1,inactive
CG7448 (retired record),2,inactive
CG7183,1,inactive
Adgf-D (Adenosine deaminase-related growth factor D),1,inactive
CG1971,1,inactive
CG10477,1,inactive
Nin (Ninein),1,inactive
JYalpha,1,inactive
CG12540,1,inactive
CG31729,1,inactive
CG31729,2,inactive
CG4558,1,inactive
CG13681 (retired record),1,inactive
CG13681 (retired record),2,inactive
CG13681 (retired record),3,inactive
CG13681 (retired record),4,inactive
CG13681 (retired record),5,inactive
CG13681 (retired record),6,inactive
SLC5A11 (Sodium/solute co-transporter-like 5A11),1,inactive
nemy (no extended memory),1,inactive
nemy (no extended memory),2,active
stx (stuxnet),1,inactive
stx (stuxnet),2,inactive
CG4036,1,inactive
CG9521,1,inactive
Nep4 (Neprilysin 4),1,inactive
CG12684,1,inactive
CDase (Ceramidase),1,inactive
CG9117,1,inactive
HP5 (Heterochromatin protein 5),1,inactive
ArgRS (Arginyl-tRNA synthetase),1,active
rpr (reaper),1,inactive
Snap25 (Synaptosomal-associated protein 25kDa),1,inactive
Snap25 (Synaptosomal-associated protein 25kDa),2,inactive
Pal1 + Pdrg1,1,inactive
CG13344,1,inactive
CG13028,1,inactive
CG14265,1,inactive
mago (mago nashi),1,inactive
Lgr4 (Leucine-rich repeat-containing G protein-coupled receptor 4),1,inactive
Lgr4 (Leucine-rich repeat-containing G protein-coupled receptor 4),2,inactive
Lgr4 (Leucine-rich repeat-containing G protein-coupled receptor 4),3,inactive
CG10474,1,inactive
CG10435,1,inactive
Or46a (Odorant receptor 46a),1,inactive
Or46a (Odorant receptor 46a),2,inactive
Or46a (Odorant receptor 46a),3,inactive
Rbp1 (RNA-binding protein 1),1,inactive
gny (garnysstan),1,inactive
CG18661,1,inactive
Or85f (Odorant receptor 85f),1,inactive
Atg13 (Autophagy-related 13),1,inactive
CG12909,1,inactive
RpS14b (Ribosomal protein S14b),1,inactive
Acp26Aa (Accessory gland protein 26Aa),1,inactive
CG4098,1,inactive
Lcp65Ag3 (Larval cuticle protein),1,inactive
CG11436,1,inactive
CG34106,1,inactive
tum (tumbleweed),1,inactive
CG3306,1,inactive
Jheh3 (Juvenile hormone epoxide hydrolase 3),1,inactive
CG4854,1,inactive
Clp (Clipper),1,inactive
CG14454,1,inactive
CG14195,1,inactive
Npc2h (Niemann-Pick type C-2h),1,inactive
CG8888,1,inactive
CG8888,2,inactive
Eig71Ef (Ecdysone-induced gene 71Ef),1,inactive
CG6163,1,inactive
CG15330,1,inactive
